These are yes or no findings as the source states them, for the method shown. In cells and extracts the contact can be indirect. Some entries that bind do so weakly or less than the wild type.
Target: FLAG-tagged humIE1 1-382 (N-terminally extended humIE1 core) (human cytomegalovirus (HCMV)) (UniProt P13202)
Experiment: co-IP; HEK293T co-transfected with FLAG-tagged IE1 variants and Myc-tagged PML variants; lysis in CoIP buffer (50 mM Tris-HCl pH 8.0, 150 mM NaCl, 5 mM EDTA, 0.5% NP-40); IP with anti-FLAG M2 on protein-A-sepharose, 2 h at 4°C; co-precipitated PML detected by Western blot

Protein sequences, listed by entry. Tags and fused reporters are not part of them. Lines headed by an entry give the natural chain unless they say otherwise; changes in a name come on top. Chains listed by the source or under a name are the forms on record and can include a tag or linker. Residues count along the entry.
UniProt P13202, residues 1-382: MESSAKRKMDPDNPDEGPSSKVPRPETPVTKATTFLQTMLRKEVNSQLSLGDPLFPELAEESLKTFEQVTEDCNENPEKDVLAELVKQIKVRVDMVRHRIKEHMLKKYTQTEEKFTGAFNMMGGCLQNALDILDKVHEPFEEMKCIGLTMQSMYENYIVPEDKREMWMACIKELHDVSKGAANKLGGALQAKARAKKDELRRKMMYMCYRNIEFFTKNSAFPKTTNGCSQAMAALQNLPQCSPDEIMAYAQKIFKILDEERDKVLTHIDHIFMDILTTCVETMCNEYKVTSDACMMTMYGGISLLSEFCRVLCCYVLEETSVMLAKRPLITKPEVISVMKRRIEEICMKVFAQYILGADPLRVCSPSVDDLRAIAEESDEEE
Myc-tagged human PML, isoform VI (P29590-4, form named): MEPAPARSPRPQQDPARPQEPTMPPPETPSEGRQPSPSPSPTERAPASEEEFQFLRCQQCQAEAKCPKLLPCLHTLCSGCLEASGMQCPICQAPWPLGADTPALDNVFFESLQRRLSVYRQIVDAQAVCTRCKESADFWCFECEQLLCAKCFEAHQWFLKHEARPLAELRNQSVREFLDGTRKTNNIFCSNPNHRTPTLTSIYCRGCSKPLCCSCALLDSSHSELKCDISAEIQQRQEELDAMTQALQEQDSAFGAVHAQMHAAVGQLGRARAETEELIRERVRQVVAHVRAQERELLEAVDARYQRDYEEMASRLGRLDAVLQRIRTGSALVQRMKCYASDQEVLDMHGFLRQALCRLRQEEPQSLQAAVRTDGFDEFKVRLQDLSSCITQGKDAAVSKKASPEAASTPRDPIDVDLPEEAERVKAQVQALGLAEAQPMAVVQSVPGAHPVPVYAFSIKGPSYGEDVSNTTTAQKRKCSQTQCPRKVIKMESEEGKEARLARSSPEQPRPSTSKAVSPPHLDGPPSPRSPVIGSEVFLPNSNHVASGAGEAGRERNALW

Myc-tagged human PML, isoform VI (from UniProt P29590-4 1-560)
binding: binds

From article PMC8376021
